Results: PMC11334498
Results are given in words; binding and its absence hold for the method and conditions named. Binding seen in cells or lysates may run through a third protein. Some entries that bind do so weakly or less than the wild type.

The chains behind the UniProt entries cited, without tags or fusion partners.
UniProt Q16665: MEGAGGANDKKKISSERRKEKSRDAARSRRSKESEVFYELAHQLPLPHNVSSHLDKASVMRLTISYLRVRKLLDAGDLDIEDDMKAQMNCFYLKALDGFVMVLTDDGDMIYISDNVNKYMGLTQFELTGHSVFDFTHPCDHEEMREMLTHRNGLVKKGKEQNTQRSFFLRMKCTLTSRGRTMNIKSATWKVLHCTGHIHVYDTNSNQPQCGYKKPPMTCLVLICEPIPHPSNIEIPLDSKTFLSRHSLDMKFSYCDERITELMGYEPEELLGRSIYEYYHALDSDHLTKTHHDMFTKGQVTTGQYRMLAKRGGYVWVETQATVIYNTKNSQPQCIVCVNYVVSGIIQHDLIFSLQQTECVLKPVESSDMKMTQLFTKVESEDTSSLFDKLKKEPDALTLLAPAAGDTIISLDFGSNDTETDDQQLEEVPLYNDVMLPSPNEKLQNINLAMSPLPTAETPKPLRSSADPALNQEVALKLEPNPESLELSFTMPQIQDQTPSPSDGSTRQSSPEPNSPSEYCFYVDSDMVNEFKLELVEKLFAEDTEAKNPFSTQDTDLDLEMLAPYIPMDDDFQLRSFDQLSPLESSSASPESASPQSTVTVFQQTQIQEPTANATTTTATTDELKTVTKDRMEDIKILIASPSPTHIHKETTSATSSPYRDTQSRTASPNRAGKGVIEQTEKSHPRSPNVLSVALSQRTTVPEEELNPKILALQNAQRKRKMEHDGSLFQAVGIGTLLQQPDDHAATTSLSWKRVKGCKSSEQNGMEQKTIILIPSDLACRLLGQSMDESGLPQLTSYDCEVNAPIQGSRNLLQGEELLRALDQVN

Assays:
[1] = biological target: T1, Neurexophilin 4 (NXPH4) (human (endogenous in human CRC cell lines)) (UniProt O95158); assay: co-IP; Co-IP Kit (Bersin); cell lysate with protease inhibitors incubated overnight at 4 °C with beads conjugated to anti-HIF1A/PHD4/NXPH4/IgG antibodies; western blot; some panels after lentiviral NXPH4 knockdown or overexpression
T1 sequence: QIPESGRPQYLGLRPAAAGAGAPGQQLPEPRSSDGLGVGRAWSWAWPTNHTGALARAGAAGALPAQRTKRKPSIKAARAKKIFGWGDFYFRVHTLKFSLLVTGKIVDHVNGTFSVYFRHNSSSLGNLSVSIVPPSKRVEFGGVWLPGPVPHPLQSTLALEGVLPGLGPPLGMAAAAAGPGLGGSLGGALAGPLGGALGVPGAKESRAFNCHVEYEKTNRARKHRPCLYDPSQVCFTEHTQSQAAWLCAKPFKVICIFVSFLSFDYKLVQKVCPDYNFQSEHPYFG

[2] = biological target: T2, PHD4 (prolyl 4-hydroxylase, transmembrane), coded by P4HTM (human (endogenous in human CRC cell lines)) (UniProt Q9NXG6); assay: as above
T2 sequence: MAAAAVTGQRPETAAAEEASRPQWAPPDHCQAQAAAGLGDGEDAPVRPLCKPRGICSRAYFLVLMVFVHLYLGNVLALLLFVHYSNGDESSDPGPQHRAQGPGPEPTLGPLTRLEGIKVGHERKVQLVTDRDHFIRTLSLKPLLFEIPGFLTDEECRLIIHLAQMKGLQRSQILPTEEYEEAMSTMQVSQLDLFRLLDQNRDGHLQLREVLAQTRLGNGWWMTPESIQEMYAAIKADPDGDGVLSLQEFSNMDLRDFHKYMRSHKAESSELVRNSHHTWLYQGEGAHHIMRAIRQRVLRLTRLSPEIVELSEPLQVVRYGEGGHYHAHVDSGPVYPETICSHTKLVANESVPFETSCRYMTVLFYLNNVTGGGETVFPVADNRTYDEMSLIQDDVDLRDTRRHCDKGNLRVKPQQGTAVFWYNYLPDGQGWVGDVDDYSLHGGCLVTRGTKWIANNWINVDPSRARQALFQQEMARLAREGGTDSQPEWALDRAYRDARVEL

binding [1]: no binding
binding [2]: binds
Substance: Hypoxia inducible factor-1A (HIF1A) (from UniProt Q16665 1-826)
